Laboratory results reported in ChEMBL document CHEMBL5260848, “Recent advancements in the development of bioactive pyrazoline derivatives” (Eur J Med Chem, 2020).

By UniProt entry, the sequences of proteins in these tests, tags left out. Where a name states a change or a piece, a line headed by the entry shows the natural chain unless it says otherwise.
UniProt P22303: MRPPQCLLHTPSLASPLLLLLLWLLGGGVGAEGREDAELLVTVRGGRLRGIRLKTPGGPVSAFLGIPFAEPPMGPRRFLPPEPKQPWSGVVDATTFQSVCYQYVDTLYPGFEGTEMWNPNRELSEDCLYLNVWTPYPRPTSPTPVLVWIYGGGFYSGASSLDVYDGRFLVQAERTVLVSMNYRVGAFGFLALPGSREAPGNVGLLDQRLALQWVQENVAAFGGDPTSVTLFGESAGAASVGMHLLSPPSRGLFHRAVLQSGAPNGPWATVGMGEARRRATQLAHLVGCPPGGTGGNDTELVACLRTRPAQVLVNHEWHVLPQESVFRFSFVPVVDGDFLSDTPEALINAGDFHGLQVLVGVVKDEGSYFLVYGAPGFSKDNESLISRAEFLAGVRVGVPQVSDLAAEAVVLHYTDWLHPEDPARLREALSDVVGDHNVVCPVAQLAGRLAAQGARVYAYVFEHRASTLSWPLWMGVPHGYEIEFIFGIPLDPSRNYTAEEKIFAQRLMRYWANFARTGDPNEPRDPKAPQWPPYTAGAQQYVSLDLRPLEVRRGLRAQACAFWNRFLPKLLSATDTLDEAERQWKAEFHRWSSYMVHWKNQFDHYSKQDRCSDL

Biological target: Acetylcholinesterase (Homo sapiens, UniProt P22303)

| SMILES | IC50 | Ki |
| --- | --- | --- |
| COc1cccc(C2CC(c3cc(F)cc(F)c3)=NN2c2ccc(S(N)(=O)=O)cc2)c1OC (centres undefined) | 6.36 nM | 3.28 nM |
| COc1ccc(OC)c(C2CC(c3cc(F)ccc3F)=NN2c2ccc(S(N)(=O)=O)cc2)c1 (centres undefined) | 6.36 nM | 3.28 nM |
